Experimental findings from patent US20200262889A1 are described below.

These are yes or no findings as the source states them, for the method shown. In cells and extracts the contact can be indirect. Some binding calls cover weakened binding; strength is not graded here.

For test [1], the target named is T1, human NaDC-1 (Solute carrier family 13 member 2, Slc13a2), wild type (human) (UniProt Q13183).
T1 sequence (looked up): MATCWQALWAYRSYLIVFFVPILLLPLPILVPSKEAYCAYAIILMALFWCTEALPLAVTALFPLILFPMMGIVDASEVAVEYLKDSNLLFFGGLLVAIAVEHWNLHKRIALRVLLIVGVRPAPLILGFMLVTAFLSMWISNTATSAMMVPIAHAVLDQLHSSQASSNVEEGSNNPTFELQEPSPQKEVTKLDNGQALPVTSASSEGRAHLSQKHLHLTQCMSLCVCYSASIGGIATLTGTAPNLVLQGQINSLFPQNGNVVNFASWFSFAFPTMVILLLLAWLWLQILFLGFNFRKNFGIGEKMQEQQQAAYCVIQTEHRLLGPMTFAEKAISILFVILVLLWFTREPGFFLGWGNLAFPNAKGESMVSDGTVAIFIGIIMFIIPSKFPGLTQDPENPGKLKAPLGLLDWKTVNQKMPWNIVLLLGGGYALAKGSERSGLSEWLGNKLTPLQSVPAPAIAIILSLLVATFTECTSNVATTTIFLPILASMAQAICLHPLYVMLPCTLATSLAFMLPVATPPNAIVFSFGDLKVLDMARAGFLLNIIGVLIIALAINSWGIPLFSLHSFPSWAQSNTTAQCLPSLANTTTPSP
Description: co-immunoprecipitation of WT hNaDC-1 and WT hSLC26a6.

Test [2] concerns the target T1, human NaDC-1 (Solute carrier family 13 member 2, Slc13a2), wild type (human). The test can be described thus: co-immunoprecipitation of WT NaDC-1 with WT slc26a6.

B1: human SLC26A6, wild type (protein)
chain: MGLADASGPRDTQALLSATQAMDLRRRDYHMERPLLNQEHLEELGRWGSAPRTHQWRTWLQCSRARAYALLLQHLPVLVWLPRYPVRDWLLGDLLSGLSVAIMQLPQGLAYALLAGLPPVFGLYSSFYPVFIYFLFGTSRHISVGTFAVMSVMVGSVTESLAPQALNDSMINETARDAARVQVASTLSVLVGLFQVGLGLIHFGFVVTYLSEPLVRGYTTAAAVQVFVSQLKYVFGLHLSSHSGPLSLIYTVLEVCWKLPQSKVGTVVTAAVAGVVLVVVKLLNDKLQQQLPMPIPGELLTLIGATGISYGMGLKHRFEVDVVGNIPAGLVPPVAPNTQLFSKLVGSAFTIAVVGFAIAISLGKIFALRHGYRVDSNQELVALGLSNLIGGIFQCFPVSCSMSRSLVQESTGGNSQVAGAISSLFILLIIVKLGELFHDLPKAVLAAIIIVNLKGMLRQLSDMRSLWKANRADLLIWLVTFTATILLNLDLGLVVAVIFSLLLVVVRTQMPHYSVLGQVPDTDIYRDVAEYSEAKEVRGVKVFRSSATVYFANAEFYSDALKQRCGVDVDFLISQKKKLLKKQEQLKLKQLQKEEKLRKQAASPKGASVSINVNTSLEDMRSNNVEDCKMMQVSSGDKMEDATANGQEDSKAPDGSTLKALGLPQPDFHSLILDLGALSFVDTVCLKSLKNIFHDFREIEVEVYMAACHSPVVSQLEAGHFFDASITKKHLFASVHDAVTFALQHPRPVPDSPVSVTRL
As for B1, the binding entry in test [1] is “binds”.

B2: mouse slc26a6 (solute carrier family 26 member 6), wild type (protein, not shown: small tags and cut ends)
chain: MELQRRDYHVERPLLNQEQLEDLGHWGPAAKTHQWRTWFRCSRARAHSLLLQHVPVLGWLPRYPVREWLLGDLLSGLSVAIMQLPQGLAYALLAGLPPMFGLYSSFYPVFIYFLFGTSRHISVGTFAVMSVMVGSVTESLTADKAFVQGLNATADDARVQVAYTLSFLVGLFQVGLGLVHFGFVVTYLSEPLVRSYTTAASVQVLVSQLKYVFGIKLSSHSGPLSVIYTVLEVCAQLPETVPGTVVTAIVAGVALVLVKLLNEKLHRRLPLPIPGELLTLIGATGISYGVKLNDRFKVDVVGNITTGLIPPVAPKTELFATLVGNAFAIAVVGFAIAISLGKIFALRHGYRVDSNQELVALGLSNLIGGFFQCFPVSCSMSRSLVQESTGGNTQVAGAVSSLFILLIIVKLGELFRDLPKAVLAAVIIVNLKGMMKQFSDICSLWKANRVDLLIWLVTFVATILLNLDIGLAVSIVFSLLLVVVRMQLPHYSVLGQVPDTDIYRDVAEYSGAKEVPGVKVFRSSATLYFANAELYSDSLKEKCGVDVDRLITQKKKRIKKQEMKLKRMKKAKKSQKQDASSKISSVSVNVNTNLEDVKSNDVEGSEAKVHQGEELQDVVSSNQEDAKAPTMTSLKSLGLPQPGFHSLILDLSTLSFVDTVCIKSLKNIFRDFREIEVEVYIAACYSPVVAQLEAGHFFDESITKQHVFASVHDAVTFALSHRKSVPKSPVLATKL
Consider B2, for which, in test [2], the binding entry was “binds”.
